Source: PubChem BioAssay AID2417 (National Center for Advancing Translational Sciences (NCATS), 2010)
About 4,300 (3.1%) of roughly 140,000 compounds were called active. Inconclusive results, whose numbers are uncertain, are shown with a selection of clear calls.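 Rule for the calls: active = readout at or below -70, meaning at least 70% loss of cells showing the perinucleolar compartment, a nuclear body marking cancer cells; inconclusive = readout between -30 and a set limit; inactive = the rest.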

Assay: High Content Assay for Compounds that inhibit the Assembly of the Perinucleolar Compartment;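 note: plate controls were DMSO wells for no effect and camptothecin positive control wells for full effect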
Settings: PC3M PTB-GFP, PNC prevalence imaging, 16 h; at 10 µM; stronger effect = lower value
Procedure, shortened: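 Compounds are pinned in duplicate onto adhered PC3M cells stably expressing GFP-tagged PTB and incubated 16 h at 37 C. Cells are then fixed, nuclei stained with Hoechst, and PNC-positive cells counted.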

Row | Structure (SMILES) | activity change (PNC), negative = inhibition
1 | Clc1ccc(N/N=C/c2cccnc2)cc1 | inconclusive: -63.5%
2 | CC(=O)c1ccc(Sc2ccccc2)cc1 | inconclusive: -67.5%
3 | Cc1ccc(-c2ccc(C(=O)O)c(C)n2)cc1 | inactive: -17.2%
4 | O=C(N/N=C/c1ccc(OC(=O)c2ccccc2)c([N+](=O)[O-])c1)c1ccc(O)cc1 | inactive: -25.7%
5 | O=C1NCCCC1C(=O)N/N=C/c1ccccc1O (stereo not given) | inactive: 21.5%
6 | COc1ccc(-c2cc(C(F)F)n3ncc(C(=O)N4CCN(C(=O)c5ccco5)CC4)c3n2)cc1 | inconclusive: -36%
7 | O=[N+]([O-])c1ccccc1-c1ccc(/C=N/n2cnnc2)o1 | inactive: 46.8%
8 | N#Cc1ccc(COC(=O)c2ccc(N3CCCC3)c([N+](=O)[O-])c2)cc1 | inconclusive: -48.5%
9 | Cc1nnc(SCC(=O)N/N=C/c2cn(-c3ccccc3)nc2-c2ccc(F)cc2)n1-c1ccccc1 | inconclusive: -48.3%
10 | O=C(Nc1ccc(Cl)cc1)Nc1nnc(CSCc2ccc(Cl)cc2)s1 | inactive: -4.21%
11 | CN1CCN(CC(=O)Nc2ccc(Cl)cc2Cl)CC1 | inconclusive: -54.7%
12 | COc1cccc(NC(=O)C2C3CCC4C(CCC32)C4(Cl)Cl)c1 (stereo not given) | inconclusive: -58.2%
13 | CCCC(=O)NCCc1cc2ccc(C)c(C)c2[nH]c1=O | inconclusive: -30.1%
14 | COc1cccc(NC(=S)NNC(=O)Cn2nc(C(F)(F)F)cc2C)c1 | inactive: 32.5%
15 | O=C(NCCOC(=O)c1ccc(C(=O)OCCNC(=O)c2ccccc2)o1)c1ccccc1 | inactive: -9.63%
16 | O=C(COC(=O)/C=C/c1cccc(Cl)c1)NCCC1=CCCCC1 | inconclusive: -65.8%
17 | COc1cccc(/C(O)=C2\C(=O)C(=O)N(c3ccccn3)C2c2cccc(OC)c2OC)c1 (stereo not given) | inconclusive: -60.5%
18 | CC1CN(C(=O)COC(=O)c2ccc(N)c([N+](=O)[O-])c2)CC(C)O1 (stereo not given) | inconclusive: -40.7%
19 | CCN(CC(=O)NCc1cccs1)S(=O)(=O)c1cccc(C(C)=O)c1 | active: -83%
20 | O=C(c1cnn2ccccc12)N1CCCc2ccccc21 | inconclusive: -36.7%
21 | Cc1coc(C)c1C(=O)CC1(O)C(=O)Nc2cc(Cl)cc(Cl)c21 (stereo not given) | inconclusive: -38%
22 | COC1(OC)N=C(N)C2(C#N)C(c3ccc(C)cc3)C12C#N (stereo not given) | inactive: 102%
23 | Cc1cc(-c2nc3cccnc3s2)ccc1NS(=O)(=O)c1ccc2c(c1)OCCO2 | inactive: 10.5%

Row | Structure (SMILES) | activity change (PNC), negative = inhibition
24 | CC(C)NS(=O)(=O)c1ccc2c(c1)NCC2 | inconclusive: -57.9%
25 | CCN(CC)c1ccc(NC(=O)C(C)C)cc1 | inactive: -15.2%
26 | O=S1(=O)CCN2C(c3ccc4c(c3)CCCC4)=CSC2=N1 | inconclusive: -30.9%
27 | Cc1ccc(Nc2nc(N)nc(CN3CCN(c4ccccc4F)CC3)n2)cc1 | inactive: 17.3%
28 | Cn1c(=O)cc(OCC(=O)N2CCC(N3CCCCC3)CC2)c2ccccc21 | inactive: -1.69%
29 | Cc1ccc(-c2cc(C(=O)NCc3cnn(C)c3C)c3cc(Br)ccc3n2)cc1 | inactive: 2.81%
30 | O=[N+]([O-])c1cc2c(cc1/C=N\NS(=O)(=O)c1ccccc1)OCO2 | inactive: -3.06%
31 | O=C(COC(=O)c1ccc(S(=O)(=O)NCc2ccco2)cc1)NC1CCCCCC1 | inconclusive: -39.6%
32 | Cc1nc(SCC(=O)NC(C)(C#N)C2CC2)c2c(-c3cccs3)csc2n1 (stereo not given) | inconclusive: -79.2%
33 | CCCCOc1ccc(C(O)(CC)CCN2CCOCC2)cc1 (stereo not given) | inconclusive: -52.5%
34 | CCCc1nnc(SCc2ccc(OCC)cc2)n1N | inactive: -17.8%
35 | O=C(NC1CC1)C1CCN(c2ncnc3c2sc2cccc(F)c23)CC1 | inactive: 21.4%
36 | CCOc1ccccc1C1CC(=O)Nc2cc(OC)c(OC)c(OC)c21 (stereo not given) | inactive: 37.6%
37 | COP(=O)(/C=C/c1ccccc1)C(O)c1ccc(F)cc1 (stereo not given) | inconclusive: -31%
38 | O=C(Cn1cnc2c(cnn2-c2ccccc2)c1=O)Nc1cc(S(=O)(=O)N2CCOCC2)ccc1Cl | inconclusive: -41.1%
39 | Cn1c(Cc2csc(N)n2)nnc1SCC(=O)NC1CCCCC1 | inconclusive: -35.6%
40 | Cc1ccc(Nc2c3c(nc4ncnn24)CCC3)cc1 | inconclusive: -51.2%
41 | COc1ccc(OC)c(/C=C2\SC(=S)N(Cc3cccnc3)C2=O)c1 | inactive: 24%
42 | O=C(Nc1nc(-c2ccc(F)cc2)cs1)c1cnccn1 | inconclusive: -34.8%
43 | O=C(CSc1nc2[nH]ncc2c(=O)n1-c1ccccc1Br)NCc1ccco1 | inconclusive: -36.8%
44 | N#Cc1c(NC(=O)CSc2n[nH]c(N)n2)oc(-c2ccccc2)c1-c1ccccc1 | inactive: 40.3%
45 | CCOC(=O)N1CCN(C(=O)c2noc(C(C)C)c2[N+](=O)[O-])CC1 | inactive: 39%
46 | COc1ccc(OC)c(N2C(N)=NC(N)=NC23CCCC3)c1 | inactive: 16.1%

Row | Structure (SMILES) | activity change (PNC), negative = inhibition
47 | COc1ccc(-n2c3c(cc(C(=O)N4CCCCC4)c2=O)C(=O)CC(C)(C)C3)cc1 | inconclusive: -41.9%
48 | O=C(c1cncc(Br)c1)N1CCN(c2ccc([N+](=O)[O-])cc2)CC1 | inconclusive: -36.3%
49 | O=C(CSc1nc2ccccc2c(=O)n1NC(=O)c1ccccc1)c1ccc(Cl)cc1 | inactive: 73.5%
50 | COc1ccc(C2CC(c3cccs3)=NN2C(=O)c2ccc(Br)o2)cc1 (stereo not given) | inconclusive: -47.5%
51 | COC(=O)C(O)(NC(=O)OCc1ccccc1)C(F)(F)F (stereo not given) | inconclusive: -66%
52 | COc1ccc(NC(=O)C2C3CCC4C(CCC32)C4(Cl)Cl)cc1 (stereo not given) | inactive: -11.4%
53 | COc1ccc2cnnc(SCC(=O)Nc3ccccc3)c2c1OC | inactive: 9.28%
54 | CCOC(=O)C(C(=O)Nc1nccs1)C1CCCCC1 (stereo not given) | inactive: 5.94%
55 | CCOc1ccc(CCNC(=O)COC(=O)c2nc3nc(C)cc(C)n3n2)cc1OCC | inactive: -13.5%
56 | Cc1ncc(CCl)c2c1OC(C)(C)OC2 | inconclusive: -53.7%
57 | Cn1c(=O)[nH]c(=O)c2c1nc(SCCN1CCCCC1)n2CCCc1ccccc1 | inconclusive: -32.4%
58 | COc1cccc(NC(=O)CSc2nc3ccccc3cc2Cc2ccccc2)c1 | inactive: 34.3%
59 | Cn1c(=O)c2c(nc(CN3CCN(C(=O)c4ccco4)CC3)n2Cc2ccccc2)n(C)c1=O | inconclusive: -41.2%
60 | O=C(O)c1ccc(CN2C(=O)CSC2=S)cc1 | inconclusive: -54.8%
61 | FC(F)(F)c1ccc(N2CCN(c3ncnc4c3nnn4Cc3ccccc3Cl)CC2)cc1 | inactive: 4.01%
62 | Cn1nnnc1SCCNS(=O)(=O)c1ccccc1 | inconclusive: -52.5%
63 | CCN1CCCC1CNC(=O)CSc1cc(=O)n(C)c2cc(Cl)ccc12 (stereo not given) | inactive: -0.877%
64 | CNC(=O)C(Sc1ccccc1)c1ccccc1 (stereo not given) | inconclusive: -31.6%
65 | COc1cc(C(=O)N[C@H](C(=O)NC2CCCCCC2)C(C)C)cc(OC)c1OC | inconclusive: -50.3%
66 | Cc1ccc(C2C(C#N)=C(N)Oc3c2sc2ccccc32)o1 (stereo not given) | inconclusive: -48.9%
67 | CCC(=O)N1c2ccccc2-c2nnc(SC)nc2OC1c1ccc(N(C)C)cc1 (stereo not given) | inactive: 19.3%
68 | Cc1nn(C)c(C)c1CN(C)C(=O)c1cnn2c1NC(c1ccccc1)CC2C(F)(F)F (stereo not given) | inconclusive: -36.9%
69 | CCOC(=O)CSC1=C(C#N)C(c2ccc3c(c2)OCO3)CC(=O)N1 (stereo not given) | inactive: 18.9%

Row | Structure (SMILES) | activity change (PNC), negative = inhibition
70 | CCOC(=O)c1ccccc1NC(=O)CSc1nnc(COc2ccccc2C)n1C | inconclusive: -71%
71 | COc1cccc(CNC(=O)c2cc3c(C)nc4ccccc4c3o2)c1 | inactive: -18.3%
72 | COc1cc(/C=C2\C(=O)ON=C2c2ccccc2)cc(OC)c1OC | inconclusive: -59%
73 | O=C1C2C(C(=O)N1/N=C/c1cccc([N+](=O)[O-])c1)C1C=CC2C12CC2 (stereo not given) | inconclusive: -49.2%
74 | CC1=C/C(=C\c2ccc(Br)o2)C(=O)O1 | inconclusive: -52.8%
75 | CCC(=O)Nc1c(OC(=O)CC)ccc2c(C)cc(=O)oc12 | inconclusive: -58.8%
76 | COc1ccc(CNc2nc3c(c(=O)n(Cc4ccc(Cl)cc4)c(=O)n3C)n2C)cc1 | inconclusive: -46.6%
77 | CCCCNC(=O)c1c(C)cc(=O)oc1C | inconclusive: -38.8%
78 | O=C(O)C1C2C=CC(C2)C1C(=O)Nc1ccc(C(=O)N2CCCCC2)c(Cl)c1 (stereo not given) | inactive: 11.7%
79 | CCn1c(SCc2ccc(C(=O)Nc3cc(C)cc(C)c3)cc2)nnc1-c1ccncc1 | inconclusive: -32.5%
80 | Cc1ccc2[nH]cc(C(=O)NCc3cccs3)c(=O)c2c1 | inconclusive: -54.8%
81 | CC1=C(C)C(=O)C(CCCCC#CCCCC#CCO)=C(C)C1=O | inactive: 21.7%
82 | CC1(C)Cc2c(sc3c2C(=O)N(c2ccccc2)C2=NCCCN23)CO1 | inconclusive: -60.3%
83 | CCCc1nnc(NC(=O)CCC(=O)NCCc2ccc(OC)c(OC)c2)s1 | inconclusive: -43.8%
84 | COc1cccc(N2CCN(C(=O)c3ccc(CSc4nc5ccncc5[nH]4)cc3)CC2)c1 | inactive: 19.1%
85 | COc1ccc(-n2nnnc2SCC(=O)Nc2nnn(C)n2)cc1 | inactive: -22.5%
86 | COc1ccc2oc(=O)c(C(=O)O)cc2c1 | inconclusive: -54%
87 | c1ccc(-n2nnc3cnccc32)cc1 | inconclusive: -43.2%
88 | Cc1ccc(O)c(-c2cc(C(=O)Nc3ccc(S(=O)(=O)Nc4nc(C)cc(C)n4)cc3)[nH]n2)c1 | inactive: 16%
89 | Cc1ccc(CC2CC(=O)N(Cc3ccco3)C2=O)cc1 (stereo not given) | inactive: -5.17%
90 | CC(C)c1nnc(NC(=O)Cc2ccccc2[N+](=O)[O-])s1 | inactive: -0.567%

Some of the entries so far, with tabs.
Row	Structure (SMILES)	activity change (PNC), negative = inhibition
64	CNC(=O)C(Sc1ccccc1)c1ccccc1 (stereo not given)	inconclusive: -31.6%
65	COc1cc(C(=O)N[C@H](C(=O)NC2CCCCCC2)C(C)C)cc(OC)c1OC	inconclusive: -50.3%
66	Cc1ccc(C2C(C#N)=C(N)Oc3c2sc2ccccc32)o1 (stereo not given)	inconclusive: -48.9%
67	CCC(=O)N1c2ccccc2-c2nnc(SC)nc2OC1c1ccc(N(C)C)cc1 (stereo not given)	inactive: 19.3%
68	Cc1nn(C)c(C)c1CN(C)C(=O)c1cnn2c1NC(c1ccccc1)CC2C(F)(F)F (stereo not given)	inconclusive: -36.9%
69	CCOC(=O)CSC1=C(C#N)C(c2ccc3c(c2)OCO3)CC(=O)N1 (stereo not given)	inactive: 18.9%
70	CCOC(=O)c1ccccc1NC(=O)CSc1nnc(COc2ccccc2C)n1C	inconclusive: -71%
71	COc1cccc(CNC(=O)c2cc3c(C)nc4ccccc4c3o2)c1	inactive: -18.3%
72	COc1cc(/C=C2\C(=O)ON=C2c2ccccc2)cc(OC)c1OC	inconclusive: -59%
73	O=C1C2C(C(=O)N1/N=C/c1cccc([N+](=O)[O-])c1)C1C=CC2C12CC2 (stereo not given)	inconclusive: -49.2%
74	CC1=C/C(=C\c2ccc(Br)o2)C(=O)O1	inconclusive: -52.8%
75	CCC(=O)Nc1c(OC(=O)CC)ccc2c(C)cc(=O)oc12	inconclusive: -58.8%
76	COc1ccc(CNc2nc3c(c(=O)n(Cc4ccc(Cl)cc4)c(=O)n3C)n2C)cc1	inconclusive: -46.6%
77	CCCCNC(=O)c1c(C)cc(=O)oc1C	inconclusive: -38.8%
78	O=C(O)C1C2C=CC(C2)C1C(=O)Nc1ccc(C(=O)N2CCCCC2)c(Cl)c1 (stereo not given)	inactive: 11.7%
79	CCn1c(SCc2ccc(C(=O)Nc3cc(C)cc(C)c3)cc2)nnc1-c1ccncc1	inconclusive: -32.5%
80	Cc1ccc2[nH]cc(C(=O)NCc3cccs3)c(=O)c2c1	inconclusive: -54.8%
81	CC1=C(C)C(=O)C(CCCCC#CCCCC#CCO)=C(C)C1=O	inactive: 21.7%
82	CC1(C)Cc2c(sc3c2C(=O)N(c2ccccc2)C2=NCCCN23)CO1	inconclusive: -60.3%
83	CCCc1nnc(NC(=O)CCC(=O)NCCc2ccc(OC)c(OC)c2)s1	inconclusive: -43.8%
84	COc1cccc(N2CCN(C(=O)c3ccc(CSc4nc5ccncc5[nH]4)cc3)CC2)c1	inactive: 19.1%
85	COc1ccc(-n2nnnc2SCC(=O)Nc2nnn(C)n2)cc1	inactive: -22.5%
86	COc1ccc2oc(=O)c(C(=O)O)cc2c1	inconclusive: -54%
87	c1ccc(-n2nnc3cnccc32)cc1	inconclusive: -43.2%
